# The list does not hold the whole screen: it is rich in T/C values a quarter to a half above the control, in often repeated tests (any T/C) and in doses without a T/C. Other doses and runs of a compound stand elsewhere. T/C gives the treated animals as a percentage of the vehicle group. Some doses have a count of surviving animals in place of a T/C: the source holds a T/C of zero for them, seemingly a mark for toxic or unscored doses. Some doses without a T/C left all or most animals alive at the check, yet need not have been tolerated: survival well below the control is almost never listed, so the zero probably covers shortened survival too. Counts of survivors are from the toxicity check (mostly the fifth day) where no day follows; animals may have died later. Schedule codes are those of the source, read here as Q, the interval in days (D) or hours (H), X, the number of doses. Some entries were tested several times; their values stand side by side, smallest first. Some schedules carry Z or #; the key to these is not given. Where survival is the endpoint, this PubChem deposit counts one and a half times the control or more as active, and values a quarter to a half above the control carry no call in these data; other NCI protocols may use other cut-offs. Some T/C values are followed by the survivors on the day toxicity was checked, most often the fifth; where none is given, no animal had died by that day. Counts like (3×) count equal records among those shown.
# System: L1210 leukemia ip in BDF1 mice, survival T/C
# Assay: NCI In Vivo Anticancer Drug Screen. Data for tumor model L1210 Leukemia (intraperitoneal) in B6D2F1 (BDF1) mice
# Conditions: T/C endpoint: mean survival time, higher T/C = longer survival
# [1] = dose: 200.0 mg/kg/injection, schedule: Q01DX001 (ip), vehicle: carboxymethylcellulose (CMC)
# [2] = dose: 400.0 mg/kg/injection, schedule: Q01DX001 (ip), vehicle: carboxymethylcellulose (CMC)
# [3] = dose: 200.0 mg/kg/injection, schedule: Q01DX009 (ip), vehicle: Klucel (hydroxypropylcellulose) (HPC)
# [4] = dose: 400.0 mg/kg/injection, schedule: Q04DX003 (ip), vehicle: saline
# [5] = dose: 400.0 mg/kg/injection, schedule: Q01DX009 (ip), vehicle: Klucel (hydroxypropylcellulose) (HPC)
# [6] = dose: 50.0 mg/kg/injection, schedule: Q04DX002 (ip), vehicle: saline with Tween-80
# [7] = dose: 100.0 mg/kg/injection, schedule: Q04DX002 (ip), vehicle: saline with Tween-80
# [8] = dose: 200.0 mg/kg/injection, schedule: Q01DX009 (ip), vehicle: saline with Tween-80
# [9] = dose: 200.0 mg/kg/injection, schedule: Q04DX002 (ip), vehicle: saline with Tween-80
# [10] = dose: 400.0 mg/kg/injection, schedule: Q01DX001 (ip), vehicle: saline with Tween-80
# [11] = dose: 400.0 mg/kg/injection, schedule: Q01DX001 (ip), vehicle: saline
# [12] = dose: 75.0 mg/kg/injection, schedule: Q01DX001 (ip), vehicle: other
# [13] = dose: 150.0 mg/kg/injection, schedule: Q01DX001 (ip), vehicle: other
# [14] = dose: 300.0 mg/kg/injection, schedule: Q01DX001 (ip), vehicle: other
# [15] = dose: 400.0 mg/kg/injection, schedule: Q04DX003 (ip), vehicle: saline with Tween-80
# [16] = dose: 400.0 mg/kg/injection, schedule: Q04DX003 (ip), vehicle: acetone
structure (smiles),measurement,setting,value
O=NN(CCCl)C(=O)Nc1ccccc1Cl,T/C,"dose: 50.0 mg/kg/injection, schedule: Q01DX001 (ip), vehicle: carboxymethylcellulose (CMC)",142 % of control
same,survivor count,[1],4 of 6
same,survivor count,"dose: 300.0 mg/kg/injection, schedule: Q01DX001 (ip), vehicle: carboxymethylcellulose (CMC)",2 of 6
same,survivor count,[2],0 of 6
same,survivor count,"dose: 500.0 mg/kg/injection, schedule: Q01DX001 (ip), vehicle: carboxymethylcellulose (CMC)",0 of 6
same,survivor count,"dose: 600.0 mg/kg/injection, schedule: Q01DX001 (ip), vehicle: carboxymethylcellulose (CMC)",0 of 6
same,survivor count,"dose: 800.0 mg/kg/injection, schedule: Q01DX001 (ip), vehicle: carboxymethylcellulose (CMC)",0 of 6
same,survivor count,"dose: 1000.0 mg/kg/injection, schedule: Q01DX001 (ip), vehicle: carboxymethylcellulose (CMC)",0 of 6
CC(C)CNC(=O)CCc1ccc(N(CCCl)CCCl)cc1,survivor count,[3],3 of 6
Cc1ccc[n+]([O-])c1Cl,survivor count,[4],3 of 6
O=C(/C=C/c1cccc([N+](=O)[O-])c1)NCCBr,survivor count,[5],3 of 6
CC(Oc1ccccc1)C(=O)NC(=S)Nc1ccc(Cl)cc1 (stereo not given),T/C,"dose: 12.5 mg/kg/injection, schedule: Q04DX002 (ip), vehicle: saline with Tween-80","90, 91, 97, 99, 101, 103 % of control"
same,T/C,"dose: 25.0 mg/kg/injection, schedule: Q04DX002 (ip), vehicle: saline with Tween-80","89, 91, 97 (2×), 101 % of control [5 of 6 alive]"
same,T/C,[6],"93, 100, 103, 111, 124 % of control (2×)"
same,survivor count,[6],3 of 3
same,T/C,[7],"86, 90, 91, 93, 95, 101, 109 % of control"
same,survivor count,[7],3 of 3
same,T/C,[8],"88, 91, 97, 102 % of control"
same,T/C,[9],"90, 101, 108 % of control"
same,survivor count,[9],3 of 3
same,survivor count,[10],0 of 6
same,survivor count,"dose: 400.0 mg/kg/injection, schedule: Q04DX002 (ip), vehicle: saline with Tween-80",0 of 3 and 2 of 6
COc1ccc(CCCC(C)(C)O)cc1,survivor count,[8],3 of 3
c1ccc2cc3c(cc2c1)Cn1c-3nc2ccccc21,survivor count,"dose: 400.0 mg/kg/injection, schedule: Q01DX015 (ip), vehicle: saline",6 of 6
same,survivor count,"dose: 800.0 mg/kg/injection, schedule: Q01DX015 (ip), vehicle: saline",5 of 6
Oc1ccccc1/C=N/c1nc2ccc(Cl)cc2s1.Oc1ccccc1/C=N/c1nc2ccc(Cl)cc2s1.[Zn],survivor count,"dose: 200.0 mg/kg/injection, schedule: Q01DX001 (ip), vehicle: saline",2 of 3
same,survivor count,[11],0 of 3
CCOC(=O)C(C#N)c1ccccc1 (stereo not given),survivor count,[11],4 of 4
CN(N=O)C(=O)NCCc1ccc(OC(=O)N(C)N=O)cc1,T/C,"dose: 6.25 mg/kg/injection, schedule: Q01DX Z (ip), vehicle: carboxymethylcellulose (CMC)",125 % of control
same,survivor count,"dose: 100.0 mg/kg/injection, schedule: Q01DX Z (ip), vehicle: carboxymethylcellulose (CMC)",5 of 6
COc1ccc(C(O)(CNCc2ccccc2)c2ccccc2)cc1 (stereo not given),survivor count,"dose: 200.0 mg/kg/injection, schedule: Q01DX001 (ip), vehicle: saline with Tween-80",3 of 6
same,survivor count,[10],1 of 6
Nc1c(-c2ccccc2)nnn1-c1cccc(Cl)c1,survivor count,"dose: 200.0 mg/kg/injection, schedule: Q04DX002 (ip), vehicle: gum acacia",3 of 3
same,survivor count,"dose: 400.0 mg/kg/injection, schedule: Q04DX002 (ip), vehicle: gum acacia",3 of 3
CCCCCCCCCC(=O)NC(=S)Nc1ccc(Br)cc1,survivor count,[3],3 of 3
same,survivor count,[5],3 of 3 and 6 of 6
CCc1ccccc1NC(=O)SCc1ccccc1,survivor count,[3],6 of 6
Cn1cnc([N+](=O)[O-])c1Cl,survivor count,[4],1 of 6
O=[N+]([O-])c1cc(S(=O)(=O)F)ccc1F,survivor count,"dose: 1.25 mg/kg/injection, schedule: Q04DX003 (ip), vehicle: carboxymethylcellulose (CMC)",6 of 6
same,survivor count,"dose: 2.5 mg/kg/injection, schedule: Q04DX003 (ip), vehicle: carboxymethylcellulose (CMC)",6 of 6
same,survivor count,"dose: 5.0 mg/kg/injection, schedule: Q04DX003 (ip), vehicle: carboxymethylcellulose (CMC)",2 of 6
same,survivor count,"dose: 7.7 mg/kg/injection, schedule: Q01DX009 (ip), vehicle: other",5 of 6
same,survivor count,"dose: 10.0 mg/kg/injection, schedule: Q04DX003 (ip), vehicle: carboxymethylcellulose (CMC)",2 of 6
same,survivor count,"dose: 11.5 mg/kg/injection, schedule: Q01DX009 (ip), vehicle: other",0 of 6
same,survivor count,"dose: 20.0 mg/kg/injection, schedule: Q01DX001 (ip), vehicle: carboxymethylcellulose (CMC)",3 of 6
same,survivor count,"dose: 40.0 mg/kg/injection, schedule: Q01DX001 (ip), vehicle: carboxymethylcellulose (CMC)",1 of 6
same,survivor count,[12],0 of 6
same,survivor count,[13],0 of 6
same,survivor count,[14],0 of 6
C=CCOc1ccccc1OC,survivor count,[15],3 of 6
CC(C)=NNc1ccc([N+](=O)[O-])cc1[N+](=O)[O-],survivor count,"dose: 200.0 mg/kg/injection, schedule: Q04DX002 (ip), vehicle: Klucel (hydroxypropylcellulose) (HPC)",3 of 3
CC1(c2ccco2)NC(=O)N(Cl)C1=O (stereo not given),survivor count,"dose: 25.0 mg/kg/injection, schedule: Q04DX003 (ip), vehicle: saline",6 of 6
same,survivor count,"dose: 50.0 mg/kg/injection, schedule: Q04DX003 (ip), vehicle: saline",6 of 6
same,survivor count,"dose: 200.0 mg/kg/injection, schedule: Q04DX003 (ip), vehicle: saline",4 of 6
same,survivor count,[4],0 of 6
CCCCCCCC(=O)[O][Hg][c]1ccccc1,survivor count,[12],1 of 6
same,survivor count,[13],0 of 6
same,survivor count,[14],0 of 6
COc1ccc2c(c1)C(C)(C)N(C)CC2,survivor count,"dose: 200.0 mg/kg/injection, schedule: Q04DX003 (ip), vehicle: acetone",0 of 6
same,survivor count,[16],0 of 6
C[N+](C)(C)CC(=O)[O-],survivor count,"dose: 400.0 mg/kg/injection, schedule: Q01DX009 (ip), vehicle: saline",3 of 6
same,survivor count,[4],4 of 6
CC(C)=CCC/C(C)=C\CC1=C(O)c2ccccc2C(=O)C1=O,survivor count,"dose: 400.0 mg/kg/injection, schedule: Q01DX001 (ip), vehicle: water",0 of 6
same,survivor count,[16],0 of 6
CC(=N\N=C(N)N)/C(C)=N/N=C(N)N,survivor count,"dose: 300.0 mg/kg/injection, schedule: Q01DX001 (ip), vehicle: saline",1 of 6
Clc1nc(Cl)nc(Cl)n1,survivor count,"dose: 400.0 mg/kg/injection, schedule: Q04DX002 (ip), vehicle: other",1 of 3
CC1(C)CC(NC(=O)NCCCl)CC(C)(C)N1,survivor count,"dose: 50.0 mg/kg/injection, schedule: Q01DX009 (ip), vehicle: saline",4 of 6
c1ccn2nnnc2c1,survivor count,"dose: 400.0 mg/kg/injection, schedule: Q01DX001 (ip), vehicle: other",0 of 4
c1n[nH]c2c1CCC2,survivor count,"dose: 300.0 mg/kg/injection, schedule: Q01DX009 (ip), vehicle: saline with Tween-80",3 of 6
CCC1N(C)CCCN1C,survivor count,[15],0 of 6
Nc1nc(N)c2cc(CCc3ccccc3)ccc2n1,survivor count,[2],0 of 4
same,survivor count,"dose: 400.0 mg/kg/injection, schedule: Q04DX003 (ip), vehicle: Klucel (hydroxypropylcellulose) (HPC)",0 of 6
CC[Si](CC)(CC)N1CC1,survivor count,"dose: 100.0 mg/kg/injection, schedule: Q01DX001 (ip), vehicle: carboxymethylcellulose (CMC)",0 of 4
same,survivor count,[1],0 of 4
same,survivor count,[2],0 of 4

# Source: PubChem BioAssay AID248 (DTP/NCI, 2004)
